Where a name gives a salt, the structure may show the parent alone. Further values from the same series stand in other lists.
Assays:
[1] = system: Chemotherapeutic agent-caused constipation models of Balb/c mice; test: Relieving effect on constipation caused by a chemotherapeutic agent (Examples 202-364); assay type: in vivo; conditions: compound intraperitoneal injection 150 mg/kg single, cycle 10 days
Source text: Construction of mouse animal models: Chemotherapeutic agent-caused constipation models of Balb/c mice were constructed according to the administration mode and frequency of the chemotherapeutic agent as shown in Table 4. […] Thus, chemotherapeutic agent-caused constipation models of mice are very good models to mimic constipation caused by the chemotherapeutic agent.
Balb/c mice were fed for 1 week, and then divided into groups. The experiment was divided into a control group, a chemotherapeutic agent group, and a group of the compound as shown in Formula I, each of which comprised 10 mice, to perform the administration experiment, for which the administration dosage, mode, time and frequency were shown in Table 4. The control group: being injected or intragastrically administered with the same solvent as that used in the group of the compound as shown in Formula I (the administration mode and time were shown in Table 4), and then being injected or intragastrically administered with the same solvent as that used in the chemotherapeutic agent group (the administration mode was shown in Table 4); the chemotherapeutic agent group: being injected or intragastrically administered with the same solvent as that used in the group of the compound as shown in Formula I (the administration mode and time was shown in Table 4), and then being injected or intragastrically administered with the chemotherapeutic agent (the type, administration mode and dosage were shown in Table 4); the group of the compound as shown in Formula I: being injected or intragastrically administered with the compound as shown in Formula I (the administration mode and time was shown in Table 4), and then being administered with the chemotherapeutic agent (the administration mode and dosage were shown in Table 4).
The feces reduction rate was calculated with reference to the method of Ji Eun Kim (Lab Anim Res. 2016 December; 32(4): 231-240.). Feces reduction rate (%)=(the control group−the chemotherapeutic agent group or the group of the compound as shown in Formula I)/the control group*100%
It is regarded as effective remission when the feces reduction rate of mice in the group of the compound as shown in Formula I is reduced compared with that in the chemotherapeutic agent group.
The feces amount of mice within 3 hours was observed and recorded every day. At the end of the experiment, the number of mice in the group of the compound as shown in Formula I whose feces reduction rate was lower than that of mice in the chemotherapeutic agent group was recorded. Table 4 lists various animal experiment combinations of chemotherapeutic agents and the compound as shown in Formula I, as well as the corresponding experimental results.

[2] = system: Chemotherapeutic agent-caused diarrhea models of Balb/c mice; test: Relieving effect on diarrhea caused by a chemotherapeutic agent (Examples 1-201); assay type: in vivo
Source text: Construction of mouse animal models: Chemotherapeutic agent-caused diarrhea models of Balb/c mice were constructed according to the administration mode and frequency of the chemotherapeutic agent as shown in Table 3. After administration for several days, mice developed different extents of diarrhea symptoms (as shown in FIG. 1), which were similar to the conditions in human. Thus, chemotherapeutic agent-caused diarrhea models of mice are very good models to mimic diarrhea in human caused by the chemotherapeutic agent.
Balb/c mice were fed for 1 week, and then divided into groups. The experiment was divided into a control group, a chemotherapeutic agent group, and a group of the compound as shown in Formula I, each of which comprised 10 mice, to perform the administration experiment, for which the administration dosage, mode, time and frequency were shown in Table 3. The control group: being injected or intragastrically administered with the same solvent as that used in the group of the compound as shown in Formula I (the injection mode and time were shown in Table 3), and then being injected or intragastrically administered with the same solvent as that used in the chemotherapeutic agent group (the administration mode was shown in Table 3); the chemotherapeutic agent group: being injected or intragastrically administered with the same solvent as that used in the group of the compound as shown in Formula I (the administration mode and time were shown in Table 3), and then being injected or intragastrically administered with the chemotherapeutic agent (the type, administration mode and dosage were shown in Table 3); the group of the compound as shown in Formula I: being injected or intragastrically administered with the compound as shown in Formula I (the administration mode and time were shown in Table 3), and then being administered with the chemotherapeutic agent (the administration mode and dosage were shown in Table 3).
The scoring of diarrhea can refer to the method of Akinobu Kurita (Cancer Chemother Pharmacol 2000; 46:211-20.), Grade 0: normal feces; Grade 1: mild diarrhea, the stools is slightly wet and soft; Grade 2: moderate diarrhea, loose stools and mild perianal contamination; Grade 3: severe diarrhea, watery stools and accompanied by severe perianal staining (see FIG. 1). It is regarded as effective remission when the diarrhea grading of mice in the group of the compound as shown in Formula I is reduced compared with the average diarrhea grading of mice in the chemotherapeutic agent group.
The diarrhea grading of mice was observed and recorded every day. At the end of the experiment, the number of mice in the group of the compound as shown in Formula I whose diarrhea grading was lower than that of mice in the chemotherapeutic agent group was recorded. Table 3 lists various animal experiment combinations of chemotherapeutic agents and the compound as shown in Formula I, as well as the corresponding experimental results. (Relative remission rate %=the number of mice in the group of the compound as shown in Formula I whose diarrhea has been effectively relieved/the total number of mice in the group of the compound as shown in Formula I*100%. The establishment rate of diarrhea model in the chemotherapeutic agent group was 50%-70%, that is, about 5-7 of 10 mice developed diarrhea during the experiment, and there were cases of individual mice death or not developing diarrhea.)

CN1CCN(c2ccc(Nc3ncc4cc5n(c4n3)C3(CCCCC3)CNC5=O)nc2)CC1 [Compound I hydrochloride, Trilaciclib dihydrochloride]
40%: Relative remission rate (%) ([1]; Example 272, Oxaliplatin intraperitoneal injection 25 mg/kg single, 4 h before chemotherapeutic agent) | Relative remission rate ([2]; Ex 51, 5-Fu 125 mg/kg intraperitoneal single, compound 150 mg/kg intraperitoneal single 12 h before, cycle 10 days) | Relative remission rate ([2]; Ex 80, Oxaliplatin 20 mg/kg intraperitoneal single, compound 150 mg/kg intraperitoneal single 12 h before, cycle 8 days)
60%: Relative remission rate (%) ([1]; Example 245, Fluorouracil (5-Fu) intravenous injection 250 mg/kg single, 12 h before chemotherapeutic agent) | Relative remission rate ([2]; Ex 30, 5-Fu 125 mg/kg intraperitoneal single, compound 100 mg/kg intravenous single 12 h before, cycle 10 days) | Relative remission rate ([2]; Ex 50, 5-Fu 125 mg/kg intraperitoneal single, compound 150 mg/kg intraperitoneal single 4 h before, cycle 10 days) | Relative remission rate ([2]; Ex 79, Oxaliplatin 20 mg/kg intraperitoneal single, compound 150 mg/kg intraperitoneal single 6 h before, cycle 8 days)
30%: Relative remission rate (%) ([1]; Example 242, Fluorouracil (5-Fu) intravenous injection 250 mg/kg single, 0.5 h before chemotherapeutic agent) | Relative remission rate (%) ([1]; Example 271, Oxaliplatin intraperitoneal injection 25 mg/kg single, 0.5 h before chemotherapeutic agent) | Relative remission rate ([2]; Ex 48, 5-Fu 125 mg/kg intraperitoneal single, compound 150 mg/kg intraperitoneal single 0.5 h before, cycle 10 days)
50%: Relative remission rate (%) ([1]; Example 243, Fluorouracil (5-Fu) intravenous injection 250 mg/kg single, 4 h before chemotherapeutic agent) | Relative remission rate (%) ([1]; Example 273, Oxaliplatin intraperitoneal injection 25 mg/kg single, 8 h before chemotherapeutic agent) | Relative remission rate (%) ([1]; Example 274, Oxaliplatin intraperitoneal injection 25 mg/kg single, 12 h before chemotherapeutic agent) | Relative remission rate ([2]; Ex 27, 5-Fu 125 mg/kg intraperitoneal single, compound 100 mg/kg intravenous single 0.5 h before, cycle 10 days) | Relative remission rate ([2]; Ex 49, 5-Fu 125 mg/kg intraperitoneal single, compound 150 mg/kg intraperitoneal single 2 h before, cycle 10 days)
20%: Relative remission rate ([2]; Ex 78, Oxaliplatin 20 mg/kg intraperitoneal single, compound 150 mg/kg intraperitoneal single 0.5 h before, cycle 8 days)
70%: Relative remission rate (%) ([1]; Example 244, Fluorouracil (5-Fu) intravenous injection 250 mg/kg single, 8 h before chemotherapeutic agent) | Relative remission rate ([2]; Ex 28, 5-Fu 125 mg/kg intraperitoneal single, compound 100 mg/kg intravenous single 2 h before, cycle 10 days) | Relative remission rate ([2]; Ex 29, 5-Fu 125 mg/kg intraperitoneal single, compound 100 mg/kg intravenous single 4 h before, cycle 10 days)

Source: patent publication US20240285634A1, “COMPOUND AND METHOD FOR TREATING CHEMOTHERAPY-ASSOCIATED GASTROINTESTINAL SIDE EFFECTS” (ONQUALITY PHARMACEUTICALS CHINA LTD., priority 2021, published 2024)
